# Data as given in PubChem BioAssay AID1347076 (National Center for Advancing Translational Sciences (NCATS), 2019).
# In all, about 400,000 compounds went through this assay and about 13,000 (3.2%) were called active. This list was built around the results that the source calls inconclusive (neither active nor inactive); the mix of calls is not that of the screen. The call rests on the fitted dose curve; in most records, active means well fitted cell-killing curve with a large enough effect; inconclusive means small, poorly fitted or top-dose-only effect, or effect the other way; inactive means flat fitted curve, though single readings scatter. Potencies beside an inconclusive call are fits to weak or partial responses and may not hold up.
# Experiment: qHTS assay for MDR1-selective chemotherapeutics: Primary screen using the drug-selected MDR subline cells KB-V1; further: nearly all actives have a fitted effect of over 60% in size
# Settings: KB-V1 MDR cells viability, CellTiter-Glo, 72 h; activity change, negative = cytotoxicity: at 46.1 µM (top of the series)
# Outline: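 Cytotoxicity toward P-gp-expressing KB-V1 cells was determined as loss of CellTiter-Glo luminescence after 72 h at 37 degrees C. Compounds were tested in quantitative HTS format across a concentration range, with curves fitted to normalized data.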
# On the % scale 0 is the no-effect control and ±100 the full control effect; potency means the concentration at half of the fitted maximal effect.
SMILES,Potency,"activity change, negative = cytotoxicity"
Cc1cccn2c(=O)c(C(=O)NC3CCCCC3C)c(O)nc12 (stereo not drawn),active: 16.4 µM,
Cc1ccc(-c2cc(C(=O)NCCc3ccccn3)c3ccccc3n2)c(C)c1,"inconclusive: 8.2 µM [cytotoxic, partial curve]",
Cc1cc(-c2nn(-c3ccccc3F)cc2CNCCc2cnccn2)c(C)s1,"inconclusive: 13 µM [cytotoxic, single point]",
COc1ccccc1C(C)NC(=O)c1cc(S(=O)(=O)N2CCCCC2)ccc1C (stereo not drawn),"inconclusive: 32.6 µM [cytotoxic, partial curve, poor fit]",
C/C(=N\Nc1cc(Cl)nc(C)n1)c1ccc(C)cc1,"inconclusive: 20.6 µM [cytotoxic, single point]",
CCNc1nc(N)nc(Oc2ccc(OCCOc3ccccc3)nn2)n1,"inconclusive: 25.9 µM [cytotoxic, partial curve]",
CCOc1ccc2nc(N3CCCC(C(=O)Nc4ccc(Br)c(C)c4)C3)sc2c1 (stereo not drawn),,inactive: -0.0764%
C[C@]12c3[nH]c4ccc(Cl)cc4c3CCN1C(=O)[C@@H](CC(=O)NCCc1ccccn1)C[C@@H]2C(=O)N1CCOCC1,,inactive: 25.5%
O=C(Nc1ccccc1F)c1nc[nH]c1C(=O)NCc1ccccc1,"inconclusive: 18.4 µM [cytotoxic, single point]",
COc1ccc(C(=O)NCC2CCCCC2)cc1S(=O)(=O)N1CCOCC1,"inconclusive: 29.1 µM [rising, single point]",
CCCCN(C)C(=S)Nc1ccsc1C(=O)OC,,inactive: -5.52%
C[C@@H]1CN([C@H](C)CO)C(=O)CCCn2cc(nn2)CO[C@H]1CN(C)C(=O)Nc1ccc(C(F)(F)F)cc1,"inconclusive: 29.1 µM [rising, single point]",
COc1cccc(C(=O)N2c3ccccc3Sc3ccccc32)c1,"inconclusive: 20.6 µM [cytotoxic, partial curve]",
COc1cc(-c2nnc(CSc3nnc(Nc4ccc(C(C)C)cc4)s3)o2)cc(OC)c1OC,active: 20.6 µM,
CCOC(=O)c1cnc2ccc(C(=O)OC)cc2c1Nc1ccc2c(c1)OCCO2,"inconclusive: 9.2 µM [cytotoxic, partial curve]",
C/C(=N\NS(=O)(=O)c1ccc(C)c([N+](=O)[O-])c1)c1cccs1,"inconclusive: 5.17 µM [rising, partial curve, poor fit]",
COc1cc2ccccc2cc1C(=O)N(CCN(C)C)c1nc2ccc(Br)cc2s1,"inconclusive: 29.1 µM [cytotoxic, single point]",
O=C(NCCCN1CCN(c2ccc(F)cc2)CC1)C1CCCN(c2ncnc3c2nc2n3CCCCC2)C1 (stereo not drawn),,inactive: 1.05%
S=C(NN=C1CCCCCC1)Nc1ccc(Cl)cc1,,inactive: 3.1%
COc1ccc2c(c1)NC(c1ccc(OCC(C)C)cc1)=NC(c1ccncc1)=N2,"inconclusive: 16.4 µM [rising, single point]",
CC1(C)CC(N2CN(C3CCCCC3)CC2=O)CC(C)(C)N1,"inconclusive: 29.1 µM [rising, single point]",
CC1(C(=O)NS(=O)(=O)c2ccc(Br)cc2)CCN1C(=O)C1(c2ccccc2)CC1 (stereo not drawn),"inconclusive: 0.517 µM [rising, full curve]",
COc1ccc2c(c1)CC(C(=O)N1CCC(C(N)=O)CC1)CO2 (stereo not drawn),,inactive: -3.39%
Cc1ccc(C(C)C)c(OCCn2cc(C(=O)c3ccco3)c3ccccc32)c1,"inconclusive: 29.1 µM [cytotoxic, single point]",
Cc1ccc2ncnc(NCCCN3CCOCC3)c2c1,,inactive: -28.5%

SMILES,Potency,"activity change, negative = cytotoxicity"
Cc1ccc2nc(NC(=O)c3ccccn3)sc2c1,"inconclusive: 6.51 µM [cytotoxic, partial curve]",
CCOc1ccc(-c2n[nH]c3c2C(c2ccccc2OC)N(c2ccc(Br)cc2)C3=O)cc1 (stereo not drawn),"inconclusive: 29.1 µM [cytotoxic, single point]",
Cc1cc(C(=O)N/N=C/c2cc(N=Nc3ccccc3)ccc2O)n[nH]1,"inconclusive: 1.84 µM [cytotoxic, full curve, poor fit]",
COc1ccc(CCNc2oc(-c3ccc(OC)c(OC)c3)nc2C#N)cc1,"inconclusive: 7.31 µM [cytotoxic, partial curve, poor fit]",
O=C(Nc1ccccc1-c1ccccc1)c1ccccc1Br,"inconclusive: 18.4 µM [cytotoxic, single point]",
CC(C)CC(=O)Nc1ccc(C(=O)COC(=O)C2CCC2)cc1,"inconclusive: 29.1 µM [rising, single point]",
COc1ccc(NC(=O)c2cccc(N3C(=O)C4CC=C(C)CC4C3=O)c2)c(OC)c1 (stereo not drawn),"inconclusive: 11.6 µM [cytotoxic, partial curve]",
N#Cc1c(N)oc(-c2ccccc2)c1-c1ccccc1,,inactive: -3.27%
COc1ccc(CN2CCNC(=O)C2CC(=O)N(C)C2CCOCC2)cc1OC (stereo not drawn),,inactive: -12.4%
CCOc1ccc(CNC(=O)c2cc3c(=O)n(C)c4ccccc4c3s2)cc1,,inactive: 0%
CC1=C(C(=O)N2CCCCCC2)CC(CC(=O)NCCCN(C)C)C(=O)N1Cc1ccccc1 (stereo not drawn),,inactive: 7.96%
CN(C)S(=O)(=O)c1cccc(NC(=O)CNCC2CCCCC2)c1,"inconclusive: 5.8 µM [cytotoxic, partial curve, poor fit]",
COc1ccc(N/C=C/C(=O)c2ccc(OC)c(OC)c2)cc1,"inconclusive: 23.1 µM [cytotoxic, partial curve, poor fit]",
N=C1S/C(=C\c2cccc3ccccc23)C(=O)N1c1ccc(F)cc1,active: 7.31 µM,
CCN(CC)CCCNC(=O)c1cc(-c2ccc(OC)c(OC)c2)on1,,inactive: 5.95%
Cc1cc(C)n2nc(CNS(=O)(=O)c3ccc(Cl)cc3)nc2n1,"inconclusive: 8.2 µM [rising, partial curve]",
NC(=O)CCC(C(=O)O)N1C(=O)C2C3CCC(C3)C2C1=O (stereo not drawn),,inactive: 19.7%
N#CC(c1nc2ccccc2nc1N1CCCC1)S(=O)(=O)c1ccccc1 (stereo not drawn),active: 20.6 µM,
COc1ccc(OC)c(CCNC(=O)CCCC(=O)n2ncc3cc(C)ccc32)c1,"inconclusive: 0.517 µM [rising, full curve, poor fit]",
Cc1ccc(C(=O)CSc2nccn2-c2ccccc2)cc1,"inconclusive: 13 µM [cytotoxic, partial curve]",
O=C(NCCN1CCC(n2c(=O)[nH]c3ccccc32)CC1)c1cccc2c1-c1ccccc1C2=O,,inactive: 0.676%
O=C(CSC(=S)N1CCOCC1)c1ccccc1,"inconclusive: 18.4 µM [cytotoxic, single point]",
NC(=O)C1CCCN(C(=O)c2cccc(S(=O)(=O)N(Cc3ccccc3)c3ccccc3)c2)C1 (stereo not drawn),"inconclusive: 23.1 µM [cytotoxic, single point]",
CCN(c1ccccc1)S(=O)(=O)c1ccc(Cl)c(NC(=O)CSc2n[nH]c(N)n2)c1,,inactive: -11%
CN1c2ccccc2-c2ccccc2S1(=O)=O,"inconclusive: 16.4 µM [rising, single point]",

SMILES,Potency,"activity change, negative = cytotoxicity"
O=C(NNC(=S)NC1CCCCC1)c1sc2ccccc2c1Cl,active: 18.4 µM,
Cc1nn(CC(=O)NNC(=S)Nc2ccccc2)c(C)c1[N+](=O)[O-],,inactive: 2.16%
Cc1c(C(=O)Nc2cccc([N+](=O)[O-])c2)csc1-c1ccccc1,active: 8.2 µM,
CCCSc1nc2c(c(=O)[nH]c(=O)n2C)n1Cc1ccccc1,"inconclusive: 23.1 µM [cytotoxic, partial curve]",
COc1ccc(C2=Nc3ccccc3N(C(=O)c3cc(Cl)cc(Cl)c3)C2C(=O)NCc2ccccc2)cc1 (stereo not drawn),"inconclusive: 16.4 µM [cytotoxic, partial curve, poor fit]",
CC(=O)N1CCN(S(=O)(=O)c2ccc3c(c2)CCC(=O)N3)CC1,"inconclusive: 18.4 µM [rising, partial curve, poor fit]",
COc1cc(SC)ccc1C(=O)Nc1ccc(Cl)cn1,active: 13 µM,
COC(=O)C1=C(C)NC(=S)N(C(C)=O)C1c1ccc(OC)c(OC)c1 (stereo not drawn),"inconclusive: 16.4 µM [cytotoxic, single point]",
OCCNCc1ccc(OCc2ccc(Cl)cc2Cl)cc1,,inactive: -9.76%
CCCSc1nc2c(cnn2-c2ccccc2)c(=O)n1N,"inconclusive: 25.9 µM [cytotoxic, single point]",
Cc1ccc(C2=Nc3ccccc3N(CC(=O)Nc3cccc(F)c3)C(=O)C2)cc1C,,inactive: -27.6%
COc1ccc(-c2noc(-c3ccc(NCc4ccccc4OC)c([N+](=O)[O-])c3)n2)cc1,,inactive: 0%
CCOc1ccc(-c2c(C(=O)N/N=C/c3cccnc3)nnn2-c2nonc2N)cc1,,inactive: 12.1%
O=c1oc2c3c(ccc2c2ccccc12)OCN(Cc1cccc(Cl)c1)C3,,inactive: 0.175%
CCOC(=O)Cc1csc(NC(=O)CS(=O)(=O)Cc2ccccc2)n1,,inactive: -23.5%
CCC(=O)Nc1ccc(C(=O)CSc2nnc(-c3ccc(NS(C)(=O)=O)cc3)n2C)cc1OC,"inconclusive: 13 µM [rising, partial curve, poor fit]",
CN=C1S/C(=C\c2ccc(Cl)cc2)C(=O)N1C,,inactive: -1.14%
Cc1cc(C)c2c(CN3CCN(Cc4ccc5c(c4)OCO5)CC3)cc(=O)oc2c1C,,inactive: -0.347%
COc1cc(C(=O)OC(C)CN2CCCCC2)cc(OC)c1OC (stereo not drawn),,inactive: 1.8%
CCOc1ccccc1N(C)C(=O)C1CCCN(c2ncnc3onc(-c4ccc(F)cc4)c23)C1 (stereo not drawn),,inactive: 15.5%
COc1cc(CN(C)Cc2cc(=O)n3ccsc3n2)ccc1OC(F)F,active: 13 µM,
Cc1c(C(=O)c2ccc(Cl)cc2[N+](=O)[O-])c2ccccn2c1CCC#N,"inconclusive: 5.8 µM [cytotoxic, partial curve]",
CCC(c1nc2ccccc2[nH]1)n1c(-c2ccc3ccccc3c2)nc2ccccc21 (stereo not drawn),"inconclusive: 18.4 µM [cytotoxic, single point]",
